Experimental data: PubChem BioAssay AID901 (National Center for Advancing Translational Sciences (NCATS), 2007)
This is one part of the list. These are further read-outs of the screen, such as a control signal, another cell line or another target. No call is given for them. Compounds called inactive in the main read-out are mostly missing here. Potencies come from curve fits of mixed quality, noted in brackets.

Test: qHTS Assay for Identifying the Cell-Membrane Permeable IMPase Inhibitors
Settings: CHO-M1 cells, IP1 accumulation, HTRF TR-FRET ratio; measured here: donor channel 620 nm AC50
In the case of `COC(=O)c1ccc2c(=O)n(NC(C)=O)c(=S)[nH]c2c1`, the AC50 is reported as 22.4 nM [falling, full curve, poor fit].
With `O=C(C1CCCCC1)N1CCN(C(=O)C2CCCCC2)CC1` the AC50 was 1000 nM [rising, full curve, poor fit].
For `CCOC(=O)c1csc(NC(=O)c2ccc(OC)c(OC)c2)n1`, the AC50 was 15800 nM [rising, single point].
For `COCc1nnc(NC(=O)CC(C)C)s1`, the AC50 was 200 nM [rising, single point].
For `CC(=O)N1CCc2cc(S(=O)(=O)CCC(=O)O)ccc21`, the AC50 was 631 nM [rising, single point].
In the case of `Cc1cccc(OCCCCc2c(C)n[nH]c2C)c1C`, the AC50 is reported as 3160 nM [rising, single point].
In the case of `O=C(CCC(=O)Nc1ccccc1)N/N=C/c1ccncc1`, the AC50 is reported as 3160 nM [falling, single point].
With `COC(=O)c1ccc(Nc2nnc(-c3ccc(C)c(S(=O)(=O)N4CCN(C)CC4)c3)c3ccccc23)cc1` the AC50 was 35500 nM [rising, single point].
For `O=C(NCC1CCCO1)NC1CCCCC1` (configuration not stated), the AC50 was 200 nM [falling, full curve].
For `CCOc1ccccc1NC(=O)CSc1nc(N)c(C#N)cc1C#N`, the AC50 was 31600 nM [rising, single point].
For `COc1ccc(-c2c3c(=O)n(C)c(=O)n(C)c3cn2-c2cccc(OC)c2)cc1`, the AC50 was 22400 nM [falling, single point].
With `COC(=O)c1cccc(-n2c(CCC(=O)O)ccc2-c2ccc(OC)cc2)c1` the AC50 was 31600 nM [rising, single point].
For `CCCCNC(=O)N1CCOCCOCCN(C(=O)NCCCC)CCOCCOCC1`, the AC50 was 3980 nM [rising, single point].
With `CCC(Sc1nc2ccccc2[nH]1)C(=O)Nc1cc(C)on1` (configuration not stated) the AC50 was 501 nM [falling, single point].
In the case of `Cn1c(CN2CCN(c3cccc(Cl)c3)CC2)nc2ccccc21`, the AC50 is reported as 3160 nM [falling, partial curve].
For `CCOC(=O)c1c(-c2ccc(Br)cc2)csc1NC(=O)c1ccccc1F`, the AC50 was 224 nM [falling, full curve].
With `COC(=O)c1ccccc1NC(=O)c1ccc(COc2ccccc2Cl)o1` the AC50 was 4.47 nM [rising, full curve, poor fit].
With `COC(=O)C1(Cc2ccccc2)NC(c2ccccc2C)C2C(=O)N(c3ccc4c(c3)OCO4)C(=O)C21` (configuration not stated) the AC50 was 126 nM [rising, single point].
With `Cc1cccc(N(CC(=O)NC2CCCCC2)C(=O)CCCC(=O)Nc2ccccn2)c1` the AC50 was 631 nM [rising, partial curve, poor fit].
For `Cc1cc(=O)[nH]c(SCCOc2ccc3c(c2)CCC3)n1`, the AC50 was 12600 nM [rising, single point].
With `Cc1ccc(-n2c(SCC(=O)Nc3ccc4c(c3)OCO4)nnc2-c2ccoc2C)cc1` the AC50 was 39.8 nM [rising, full curve, poor fit].
With `CCc1ccccc1-n1c(SCC(=O)Nc2ccc3c(c2)OCCO3)nc2[nH]ncc2c1=O` the AC50 was 15.8 nM [falling, full curve].
For `CSc1ccccc1NC(=O)CSc1nnnn1-c1ccccc1SC`, the AC50 was 31600 nM [rising, single point].
In the case of `CCN(CC)c1nc2n(c(=O)n1)CCO2`, the AC50 is reported as 5.01 nM [falling, full curve, poor fit].
For `COC(=O)c1ccc(OCC(O)CN(CCO)CCO)cc1` (configuration not stated), the AC50 was 2000 nM [falling, partial curve, poor fit].
In the case of `CC1(C)CC(=O)c2cc3c(nc2C1)CC(C)(C)CC3=O`, the AC50 is reported as 28.2 nM [falling, full curve].
For `COc1cccc(NC(=O)CSc2ncnc3c2oc2ccccc23)c1`, the AC50 was 31600 nM [rising, single point].
In the case of `O=c1c2[nH]c3cccc(Cl)c3c2ncn1CCN1CCCCC1`, the AC50 is reported as 794 nM [falling, full curve].
In the case of `CCOc1ccccc1NC(=O)c1c(NC(=O)c2ccccc2)sc2c1CCCC2`, the AC50 is reported as 282 nM [falling, full curve].
For `Cc1ccc2c(c1)nnn2C1CCN(CC(=O)c2ccc(Cl)cc2)CC1`, the AC50 was 2820 nM [rising, single point].
With `CC(C)CCn1c(SCC#N)nc2c(sc3ccccc32)c1=O` the AC50 was 25100 nM [rising, partial curve].
In the case of `CCOC(=O)C1C(=O)OC2(CCOC(C)(C)C2)C1C(=O)OCC` (configuration not stated), the AC50 is reported as 251 nM [falling, partial curve, poor fit].
For `Cc1cc(NS(=O)(=O)c2ccc(NC(=O)CCCC(=O)O)cc2)nc(C)n1`, the AC50 was 158 nM [falling, partial curve].
In the case of `CCn1cc(CNC(=O)c2cc(-c3ccc(C)c(C)c3)nc3ccccc23)c(C)n1`, the AC50 is reported as 31600 nM [rising, single point].
With `O=C(COc1ccccc1Cl)NCCc1ccc2c(c1)OCCO2` the AC50 was 5.62 nM [falling, full curve, poor fit].
In the case of `COc1cccc(NC(=O)CSc2nc3ccccc3c(=O)n2CCCC(=O)N2CCCC2)c1`, the AC50 is reported as 12.6 nM [rising, full curve, poor fit].
With `Cc1ccc(N2CC(C(=O)Nc3ccc(N(C)C)cc3)CC2=O)cc1C` (configuration not stated) the AC50 was 5.01 nM [falling, full curve, poor fit].
In the case of `COc1cc(C)nc(N2CCCC(C(=O)Nc3cc(Cl)ccc3OC)C2)n1` (configuration not stated), the AC50 is reported as 5010 nM [rising, single point].
For `CCOCCCNC(=O)C1CCN(S(=O)(=O)N2CCCCC2)CC1`, the AC50 was 5010 nM [rising, single point].
For `COc1cc(S(=O)(=O)N2CCN(c3ccc(F)cc3)CC2)ccc1Cl`, the AC50 was 50.1 nM [rising, full curve, poor fit].
For `C(=N\n1cnnc1SCc1ccccc1)/c1ccco1`, the AC50 was 31600 nM [falling, single point].
For `CCc1c(C)sc(NC(=O)C2CC2c2ccccc2)c1C(N)=O` (configuration not stated), the AC50 was 63.1 nM [falling, full curve, poor fit].
With `CCc1ccc(-c2nc3ccc(Br)cc3c(C(=O)O)c2C)s1` the AC50 was 11200 nM [rising, partial curve].
In the case of `Cc1ccc(S(=O)(=O)NC(C(=O)Oc2ccc3c(C(F)(F)F)cc(=O)oc3c2)c2ccccc2)cc1` (configuration not stated), the AC50 is reported as 12600 nM [rising, single point].
With `Cc1cc(NC(=O)CCSc2nc(-c3ccco3)cc(C(F)(F)F)n2)n(-c2ccccc2)n1` the AC50 was 126 nM [rising, single point].
With `CN(O)/C=C1\C(=O)Nc2ccccc21` the AC50 was 31600 nM [falling, single point].
In the case of `CCC(=O)NCCc1c[nH]c2ccccc12`, the AC50 is reported as 5620 nM [falling, single point].
In the case of `Cc1ccc(S(=O)(=O)c2c(N)n(/N=C/c3ccco3)c3nc4ccccc4nc23)cc1`, the AC50 is reported as 20 nM [rising, full curve, poor fit].
For `Cn1c(SCc2c(Cl)cccc2Cl)nc(C(F)(F)F)cc1=O`, the AC50 was 31600 nM [falling, single point].
With `COc1cccc(NC(=O)CSc2nccn2-c2cccc(OC)c2)c1` the AC50 was 12.6 nM [rising, full curve, poor fit].
For `Cc1cccc(-c2nc3ccccc3c(=O)n2NC(=S)N(C)C)c1`, the AC50 was 31600 nM [rising, single point].
With `Cc1ccc(-c2nnc(SCC(=O)N3CCc4ccccc43)o2)cc1` the AC50 was 11200 nM [rising, partial curve].
In the case of `Cc1c(C(=O)O)nnn1-c1ccccc1`, the AC50 is reported as 200 nM [falling, full curve, poor fit].
With `CC1CC(C)CN(CCCNC(=O)COc2cc(=O)n(C)c3ccccc23)C1` (configuration not stated) the AC50 was 251 nM [rising, full curve, poor fit].
For `COc1ccc(NS(=O)(=O)c2ccc(NS(=O)(=O)c3ccc4c(c3)OCCO4)cc2)cc1`, the AC50 was 17800 nM [falling, single point].
For `CCOC(=O)Cc1csc(-n2sc3ccccc3c2=O)n1`, the AC50 was 31600 nM [rising, single point].
For `Cc1ccc(S(=O)(=O)N2c3ccccc3NC(=O)CC2C)cc1` (configuration not stated), the AC50 was 35500 nM [falling, single point].
For `CC(=O)NCC1=C(NC(C)=O)C2CC1C(C)(C)C2C` (configuration not stated), the AC50 was 12600 nM [falling, partial curve].
For `CC(Oc1ccc(Cl)cc1Cl)C(=O)N(Cc1ccco1)C1CCS(=O)(=O)C1` (configuration not stated), the AC50 was 35500 nM [falling, partial curve, poor fit].
With `O=C(NCCc1ccccc1)/C(=N\O)c1ccccc1` the AC50 was 158 nM [falling, single point].
For `CCN(CC)C(=O)CSc1nc2ncccc2[nH]1`, the AC50 was 10 nM [falling, full curve, poor fit].
With `Cc1ccc(S(=O)(=O)N2CCC(C(=O)N[C@H](C(=O)NCc3ccco3)C(C)C)CC2)cc1` the AC50 was 2000 nM [rising, partial curve].
For `CCOC(=O)C(C(=O)NCC1CCCO1)C1CCCCC1` (configuration not stated), the AC50 was 6310 nM [falling, single point].
With `CC(=O)/C(C)=N\O` the AC50 was 20000 nM [rising, single point].
In the case of `CC(NC(=O)c1cn(C)c2ccc(S(=O)(=O)N3CCCC3)cc2c1=O)c1ccc2c(c1)OCCO2` (configuration not stated), the AC50 is reported as 50.1 nM [rising, full curve, poor fit].
With `CCOc1cc(-c2nc(-c3ccc(-c4ccc(OC)cc4)nc3OC)no2)cc(OCC)c1OCC` the AC50 was 1580 nM [falling, partial curve].
For `O=C1CC(Sc2nnc(-c3ccccc3)o2)C(=O)N1c1ccccc1` (configuration not stated), the AC50 was 12600 nM [rising, single point].
